Assay results as given in PMC8766550.

Amino acid sequences for entries named in this document (tags omitted). A change or cut given only in a name is not applied to a line headed by its entry.
UniProt Q07820: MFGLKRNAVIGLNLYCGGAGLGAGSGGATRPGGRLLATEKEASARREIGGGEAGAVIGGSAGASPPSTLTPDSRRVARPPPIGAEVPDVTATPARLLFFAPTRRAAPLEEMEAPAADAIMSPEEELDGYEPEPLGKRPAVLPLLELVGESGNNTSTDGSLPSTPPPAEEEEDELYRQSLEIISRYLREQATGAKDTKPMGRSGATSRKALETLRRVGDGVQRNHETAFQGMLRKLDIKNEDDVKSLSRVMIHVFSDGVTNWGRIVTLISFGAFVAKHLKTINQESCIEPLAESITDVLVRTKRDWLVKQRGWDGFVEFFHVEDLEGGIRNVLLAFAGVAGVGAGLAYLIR
UniProt P06733: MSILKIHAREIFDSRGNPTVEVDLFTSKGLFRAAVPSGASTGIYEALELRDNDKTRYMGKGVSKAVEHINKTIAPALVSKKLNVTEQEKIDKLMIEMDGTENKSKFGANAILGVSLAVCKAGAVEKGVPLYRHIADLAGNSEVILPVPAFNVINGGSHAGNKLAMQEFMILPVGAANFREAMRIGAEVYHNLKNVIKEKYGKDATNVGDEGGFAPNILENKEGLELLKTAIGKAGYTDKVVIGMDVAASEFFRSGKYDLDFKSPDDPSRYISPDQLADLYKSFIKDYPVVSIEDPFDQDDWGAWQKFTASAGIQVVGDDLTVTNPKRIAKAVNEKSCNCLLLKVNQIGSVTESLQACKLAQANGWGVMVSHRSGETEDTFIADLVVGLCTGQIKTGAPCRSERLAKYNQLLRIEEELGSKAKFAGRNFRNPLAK

Molecular target: loop domain deletion mutant of MCL1 (UniProt Q07820)
Test: co-IP; anti-MCL1 antibody, MCL1 CRISPR HCT116 p53-/- cells transiently transfected with wild type or mutant MCL1; blots for CaM and ENO1

binding: no binding
Substance: alpha-enolase (from UniProt P06733 1-434) (enzyme)

No constants are given. Whether binding was seen depends on the method and setting. Binding seen in cells or lysates may run through a third protein.
